# Measured values published in patent publication US11963961B2, “Combination therapy comprising an ACC inhibitor” (Gilead Sciences, Inc., priority 2017, dated 2024).
# At least one structure is not confirmed: it was looked up by name or label, or the drawing left a doubt.
# Tests used:
# Assay type in all cases: in vivo
# [1] = test system: fast food diet (FFD) male C57B1/6 mouse; assay: 14-day pharmacology study of Compound 2 and fenofibrate in chow, fast food diet model of fatty liver; settings: Compound 2 10 mg/kg QD PO, fenofibrate 0.1% in diet
# Procedure: Once Daily Compound 2 and Fenofibrate Administered in Chow: 14-Day Pharmacology Study Using the Fast Food Diet Model of Fatty Liver in the Male C57B1/6 Mouse
# Purpose: The purpose of this study was to assess the effect of Compound 2 on plasma and liver TG and molecular biology of liver after 10 to 14 days of Compound 2 administered orally (10 mg/kg QD), or fenofibrate (0.1% administration in chow), or the combination in a mice fed a diet high in fat, cholesterol, and fructose (the fast-food diet, FFD). Mice enrolled in this study were fed a fast food diet for approximately 9 months prior to study start. Primary endpoints were plasma triglycerides, liver triglycerides, liver cholesterol, and hepatic gene expression of liver X receptorα (LXRα), and sterol response element binding protein-1c (SREBP1c) target genes by qPCR.
# [2] = test system: fast food diet (FFD) male C57BL/6 mouse; assay: 15-day once daily oral Compound 2 and fenofibrate, fast food diet model of fatty liver; settings: Compound 2 5 mg/kg, fenofibrate 50 mg/kg, QD PO, 15 days
# Procedure: Once Daily Oral Administration of Compound 2 and Fenofibrate: 15-Day Pharmacology Study Using the Fast Food Diet Model of Fatty Liver in the Male C57BL/6 Mouse
# (§1) Purpose: The purpose of this study was to assess the effect of Compound 2 on plasma and liver triglycerides (TG) and molecular biology of liver after 15 days of oral administration (“PO”) of Compound 2 (5 mg/kg QD), fenofibrate (25 mg/kg and 50 mg/kg QD), or the combination (Compound 2 (5 mg/kg, QD)+fenofibrate (50 mg/kg, QD)) in mice fed a diet high in fat, cholesterol, and fructose (the fast-food diet, FFD (Research Diet D12079B)). Mice enrolled in this study were fed a FFD for approximately 9 months prior to study start. Primary endpoints were plasma TG, liver TG, liver ketone bodies, plasma liver enzymes, hepatic oxidative stress and hepatic gene expression of liver X receptorα (LXRα) and PPARα targets, and profibrotic markers by qPCR.
# [3] = test system: LXRα and SREBP1c target genes; assay: Hepatic gene expression by qPCR, 14-day FFD mouse study; settings: Compound 2 10 mg/kg QD PO; fenofibrate 0.1% in diet
# PPARα target genes = assay: Hepatic mRNA expression by qPCR, 15-day FFD mouse study; settings: Compound 2 5 mg/kg; fenofibrate 50 mg/kg; 15 days; combination relative to Compound 2 and vehicle groups
# LXRα target genes = assay: as above; settings: Compound 2 5 mg/kg; fenofibrate 50 mg/kg; 15 days
# [4] = test system: pro-fibrotic genes colla1 and timp1; assay: as above; settings: Compound 2 5 mg/kg; fenofibrate 50 mg/kg; QD PO, 15 days
# Procedure: as §1
smiles,measurement,setting,value
"COc1ccccc1[C@H](Cn1c(=O)n(C(C)(C)C(=O)O)c(=O)c2c(C)c(-c3ncco3)sc21)O[C@H]1CC[C@@H](O)CC1 [Compound 2, 2-[1-[(2R)-2-[(4-hydroxycyclohexyl)oxy]-2-(2-methoxyphenyl)ethyl]-5-methyl-6-(1,3-oxazol-2-yl)-2,4-dioxo-1H,2H,3H,4H-thieno[2,3-d]pyrimidin-3-yl]-2-methylpropanoic acid]",Plasma βOHB (ketone bodies),[1]; 14 days,significantly increased
same,Liver triglycerides,[1]; combination compared with Compound 2,reduction
same,Hepatic oxidative stress (amount of malondialdehyde),[2],reduced
same,Plasma ALT and AST levels,[2],reduced
same,"Hepatic ketone bodies (beta hydroxy butyrate, βOHB), marker for β-oxidation",[2]; 2 h post dose,increased
same,Liver TG,[2]; 2 h post dose,reduced
same,Expression of LXRα and SREBP1 target genes in liver,[3],increased expression
same,Hepatic expression of PPARα target genes,PPARα target genes,decreased expression
same,Hepatic expression of LXRα target genes,LXRα target genes,increased expression
same,Hepatic expression of pro-fibrotic genes,[4],reduced
